This is one part of the list. Small differences around the control level are noise.

Amino acid sequences for entries named in this document (tags omitted). A change or cut given only in a name is not applied to a line headed by its entry.
UniProt Q5SDA5: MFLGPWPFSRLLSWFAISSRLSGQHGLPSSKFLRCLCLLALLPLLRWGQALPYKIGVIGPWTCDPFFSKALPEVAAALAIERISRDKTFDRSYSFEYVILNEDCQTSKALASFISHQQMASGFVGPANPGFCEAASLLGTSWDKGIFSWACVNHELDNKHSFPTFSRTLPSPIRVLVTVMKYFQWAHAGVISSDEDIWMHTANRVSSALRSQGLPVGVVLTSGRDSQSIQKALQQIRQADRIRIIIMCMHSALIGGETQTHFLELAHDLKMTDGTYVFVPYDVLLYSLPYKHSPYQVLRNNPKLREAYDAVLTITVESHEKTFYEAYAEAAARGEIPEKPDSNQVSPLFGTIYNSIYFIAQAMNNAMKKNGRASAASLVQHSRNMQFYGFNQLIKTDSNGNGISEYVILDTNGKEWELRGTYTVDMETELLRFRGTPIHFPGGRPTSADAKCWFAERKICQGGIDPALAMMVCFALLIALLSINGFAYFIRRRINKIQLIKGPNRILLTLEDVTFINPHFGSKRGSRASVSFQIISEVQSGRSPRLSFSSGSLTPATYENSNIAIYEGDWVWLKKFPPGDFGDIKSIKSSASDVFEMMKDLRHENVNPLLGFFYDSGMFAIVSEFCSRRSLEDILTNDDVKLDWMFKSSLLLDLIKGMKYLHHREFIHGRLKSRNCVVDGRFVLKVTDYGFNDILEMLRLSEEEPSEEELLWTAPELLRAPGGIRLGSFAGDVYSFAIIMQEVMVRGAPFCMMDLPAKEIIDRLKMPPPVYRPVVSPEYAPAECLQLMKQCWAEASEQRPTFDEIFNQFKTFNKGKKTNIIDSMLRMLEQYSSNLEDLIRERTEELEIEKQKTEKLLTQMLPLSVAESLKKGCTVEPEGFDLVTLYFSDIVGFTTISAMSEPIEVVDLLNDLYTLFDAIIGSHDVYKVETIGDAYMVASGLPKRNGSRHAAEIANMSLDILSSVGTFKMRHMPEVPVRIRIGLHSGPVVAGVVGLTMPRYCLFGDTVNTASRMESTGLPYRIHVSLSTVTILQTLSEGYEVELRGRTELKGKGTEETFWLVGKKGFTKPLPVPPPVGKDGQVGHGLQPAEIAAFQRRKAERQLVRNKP
UniProt Q60766: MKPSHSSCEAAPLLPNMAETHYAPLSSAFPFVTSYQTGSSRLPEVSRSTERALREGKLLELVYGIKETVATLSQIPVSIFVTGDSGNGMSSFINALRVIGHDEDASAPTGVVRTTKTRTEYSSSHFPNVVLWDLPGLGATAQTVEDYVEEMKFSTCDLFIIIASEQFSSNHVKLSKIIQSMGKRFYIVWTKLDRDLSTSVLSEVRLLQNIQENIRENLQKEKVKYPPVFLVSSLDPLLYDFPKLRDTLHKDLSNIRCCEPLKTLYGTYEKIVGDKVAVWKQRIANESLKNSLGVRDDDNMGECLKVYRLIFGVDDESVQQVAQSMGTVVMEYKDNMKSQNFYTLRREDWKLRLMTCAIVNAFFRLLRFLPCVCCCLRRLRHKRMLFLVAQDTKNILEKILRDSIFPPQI
UniProt Q5SVR0, whole entry: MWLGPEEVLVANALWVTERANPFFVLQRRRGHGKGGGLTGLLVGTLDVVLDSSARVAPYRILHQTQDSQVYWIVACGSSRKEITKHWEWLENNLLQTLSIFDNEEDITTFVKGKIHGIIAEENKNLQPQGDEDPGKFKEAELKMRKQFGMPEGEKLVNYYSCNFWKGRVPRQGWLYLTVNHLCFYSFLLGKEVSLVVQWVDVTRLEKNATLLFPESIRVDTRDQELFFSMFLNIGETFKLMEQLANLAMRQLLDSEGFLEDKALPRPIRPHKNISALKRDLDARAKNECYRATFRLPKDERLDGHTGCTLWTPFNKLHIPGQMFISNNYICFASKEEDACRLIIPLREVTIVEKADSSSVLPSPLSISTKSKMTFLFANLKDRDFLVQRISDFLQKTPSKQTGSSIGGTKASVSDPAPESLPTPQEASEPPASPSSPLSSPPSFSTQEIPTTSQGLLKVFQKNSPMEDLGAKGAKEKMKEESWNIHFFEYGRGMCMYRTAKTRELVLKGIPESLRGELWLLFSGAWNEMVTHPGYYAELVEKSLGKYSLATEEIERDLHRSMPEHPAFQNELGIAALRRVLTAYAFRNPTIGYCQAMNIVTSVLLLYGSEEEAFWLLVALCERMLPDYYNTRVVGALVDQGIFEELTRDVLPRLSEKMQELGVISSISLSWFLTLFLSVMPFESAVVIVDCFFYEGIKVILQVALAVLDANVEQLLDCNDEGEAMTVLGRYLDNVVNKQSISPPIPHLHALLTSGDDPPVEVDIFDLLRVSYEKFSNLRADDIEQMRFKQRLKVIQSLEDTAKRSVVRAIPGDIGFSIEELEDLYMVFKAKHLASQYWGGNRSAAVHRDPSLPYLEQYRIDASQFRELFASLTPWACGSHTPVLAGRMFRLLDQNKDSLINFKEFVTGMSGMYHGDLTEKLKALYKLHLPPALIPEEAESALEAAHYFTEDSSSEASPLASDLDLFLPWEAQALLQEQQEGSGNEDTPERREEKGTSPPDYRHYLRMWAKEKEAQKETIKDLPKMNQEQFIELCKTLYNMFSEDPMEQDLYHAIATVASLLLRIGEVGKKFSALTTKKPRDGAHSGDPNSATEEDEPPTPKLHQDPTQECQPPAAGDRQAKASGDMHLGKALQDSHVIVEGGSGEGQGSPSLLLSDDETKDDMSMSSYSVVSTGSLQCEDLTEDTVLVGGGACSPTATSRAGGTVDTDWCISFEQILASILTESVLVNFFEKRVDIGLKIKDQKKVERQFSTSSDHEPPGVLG
UniProt Q5U458: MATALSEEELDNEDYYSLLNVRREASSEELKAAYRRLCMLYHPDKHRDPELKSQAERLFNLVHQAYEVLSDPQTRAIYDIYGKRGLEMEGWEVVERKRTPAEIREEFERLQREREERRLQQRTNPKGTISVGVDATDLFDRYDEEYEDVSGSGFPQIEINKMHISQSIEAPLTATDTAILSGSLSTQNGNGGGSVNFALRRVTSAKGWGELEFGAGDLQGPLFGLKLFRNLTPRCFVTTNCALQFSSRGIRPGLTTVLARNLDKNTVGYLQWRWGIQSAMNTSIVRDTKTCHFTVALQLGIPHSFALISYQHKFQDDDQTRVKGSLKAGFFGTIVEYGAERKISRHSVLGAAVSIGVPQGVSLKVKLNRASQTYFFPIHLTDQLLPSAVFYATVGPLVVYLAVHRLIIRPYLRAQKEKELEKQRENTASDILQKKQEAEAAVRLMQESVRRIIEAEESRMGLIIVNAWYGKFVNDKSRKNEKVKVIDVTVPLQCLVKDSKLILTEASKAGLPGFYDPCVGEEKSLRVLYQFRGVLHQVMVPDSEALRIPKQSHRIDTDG
UniProt Q5I043: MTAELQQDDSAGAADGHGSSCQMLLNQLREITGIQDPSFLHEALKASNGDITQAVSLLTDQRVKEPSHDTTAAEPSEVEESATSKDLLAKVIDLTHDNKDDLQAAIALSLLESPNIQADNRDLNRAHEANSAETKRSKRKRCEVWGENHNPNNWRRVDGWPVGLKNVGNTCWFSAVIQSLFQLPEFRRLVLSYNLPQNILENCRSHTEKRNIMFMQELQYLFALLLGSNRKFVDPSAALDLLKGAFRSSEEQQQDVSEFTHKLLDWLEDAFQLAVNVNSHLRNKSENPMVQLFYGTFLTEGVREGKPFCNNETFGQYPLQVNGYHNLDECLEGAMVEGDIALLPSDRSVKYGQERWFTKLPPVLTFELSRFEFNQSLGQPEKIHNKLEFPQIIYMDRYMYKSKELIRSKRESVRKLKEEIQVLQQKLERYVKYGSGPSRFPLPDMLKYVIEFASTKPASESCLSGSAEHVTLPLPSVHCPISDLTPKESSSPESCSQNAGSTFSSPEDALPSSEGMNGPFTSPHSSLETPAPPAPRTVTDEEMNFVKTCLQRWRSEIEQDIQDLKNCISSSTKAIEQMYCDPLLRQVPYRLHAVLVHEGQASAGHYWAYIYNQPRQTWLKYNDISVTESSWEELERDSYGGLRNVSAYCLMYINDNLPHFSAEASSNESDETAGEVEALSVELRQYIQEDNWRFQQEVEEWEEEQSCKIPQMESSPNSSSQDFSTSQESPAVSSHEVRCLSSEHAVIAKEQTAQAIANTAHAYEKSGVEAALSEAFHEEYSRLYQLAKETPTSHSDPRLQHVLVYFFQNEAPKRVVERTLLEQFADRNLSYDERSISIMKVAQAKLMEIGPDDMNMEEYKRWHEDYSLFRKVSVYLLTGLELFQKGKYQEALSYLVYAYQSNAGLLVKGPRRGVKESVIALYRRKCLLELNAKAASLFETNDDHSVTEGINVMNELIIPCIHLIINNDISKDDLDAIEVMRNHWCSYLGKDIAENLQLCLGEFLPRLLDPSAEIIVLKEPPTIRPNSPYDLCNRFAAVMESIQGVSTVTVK
UniProt Q60969: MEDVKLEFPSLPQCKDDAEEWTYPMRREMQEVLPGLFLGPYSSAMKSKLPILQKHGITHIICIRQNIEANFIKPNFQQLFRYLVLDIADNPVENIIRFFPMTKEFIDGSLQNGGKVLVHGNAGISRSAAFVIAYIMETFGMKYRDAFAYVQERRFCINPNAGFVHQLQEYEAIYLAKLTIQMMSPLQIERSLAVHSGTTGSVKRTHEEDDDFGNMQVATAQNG
UniProt Q5SQF8: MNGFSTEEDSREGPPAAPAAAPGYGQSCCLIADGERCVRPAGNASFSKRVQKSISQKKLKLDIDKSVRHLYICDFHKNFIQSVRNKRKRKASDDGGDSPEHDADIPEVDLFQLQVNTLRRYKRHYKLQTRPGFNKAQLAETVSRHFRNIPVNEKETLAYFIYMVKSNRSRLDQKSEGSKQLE
UniProt Q5XF89: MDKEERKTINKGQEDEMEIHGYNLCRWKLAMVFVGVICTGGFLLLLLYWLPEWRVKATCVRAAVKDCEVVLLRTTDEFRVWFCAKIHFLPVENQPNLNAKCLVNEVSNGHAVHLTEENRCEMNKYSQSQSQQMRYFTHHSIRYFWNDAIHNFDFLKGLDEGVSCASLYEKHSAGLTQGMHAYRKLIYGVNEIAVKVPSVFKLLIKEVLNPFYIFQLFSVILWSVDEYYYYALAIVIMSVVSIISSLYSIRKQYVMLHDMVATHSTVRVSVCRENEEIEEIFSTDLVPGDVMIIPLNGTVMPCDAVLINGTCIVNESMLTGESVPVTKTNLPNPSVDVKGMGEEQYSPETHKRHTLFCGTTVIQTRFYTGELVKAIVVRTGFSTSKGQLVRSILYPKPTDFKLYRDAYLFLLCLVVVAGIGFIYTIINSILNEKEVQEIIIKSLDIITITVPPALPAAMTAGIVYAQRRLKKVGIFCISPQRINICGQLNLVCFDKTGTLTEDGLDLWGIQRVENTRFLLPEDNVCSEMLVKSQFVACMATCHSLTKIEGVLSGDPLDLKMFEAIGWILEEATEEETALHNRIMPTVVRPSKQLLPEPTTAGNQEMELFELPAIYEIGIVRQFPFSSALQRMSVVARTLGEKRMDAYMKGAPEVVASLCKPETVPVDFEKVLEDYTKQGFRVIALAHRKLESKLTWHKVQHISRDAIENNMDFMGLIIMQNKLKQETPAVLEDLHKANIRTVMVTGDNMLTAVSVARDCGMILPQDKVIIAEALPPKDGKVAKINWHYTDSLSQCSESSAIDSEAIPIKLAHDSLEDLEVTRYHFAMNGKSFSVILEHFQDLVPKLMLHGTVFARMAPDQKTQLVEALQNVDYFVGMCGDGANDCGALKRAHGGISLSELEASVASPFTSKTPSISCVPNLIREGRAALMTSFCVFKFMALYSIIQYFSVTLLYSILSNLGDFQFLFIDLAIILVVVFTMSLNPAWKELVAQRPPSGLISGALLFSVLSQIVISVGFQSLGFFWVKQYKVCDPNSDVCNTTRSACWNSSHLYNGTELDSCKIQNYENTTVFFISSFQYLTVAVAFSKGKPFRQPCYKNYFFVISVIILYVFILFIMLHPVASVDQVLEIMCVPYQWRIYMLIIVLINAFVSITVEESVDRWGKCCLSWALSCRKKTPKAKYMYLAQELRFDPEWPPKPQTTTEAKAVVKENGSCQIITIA
UniProt Q61146: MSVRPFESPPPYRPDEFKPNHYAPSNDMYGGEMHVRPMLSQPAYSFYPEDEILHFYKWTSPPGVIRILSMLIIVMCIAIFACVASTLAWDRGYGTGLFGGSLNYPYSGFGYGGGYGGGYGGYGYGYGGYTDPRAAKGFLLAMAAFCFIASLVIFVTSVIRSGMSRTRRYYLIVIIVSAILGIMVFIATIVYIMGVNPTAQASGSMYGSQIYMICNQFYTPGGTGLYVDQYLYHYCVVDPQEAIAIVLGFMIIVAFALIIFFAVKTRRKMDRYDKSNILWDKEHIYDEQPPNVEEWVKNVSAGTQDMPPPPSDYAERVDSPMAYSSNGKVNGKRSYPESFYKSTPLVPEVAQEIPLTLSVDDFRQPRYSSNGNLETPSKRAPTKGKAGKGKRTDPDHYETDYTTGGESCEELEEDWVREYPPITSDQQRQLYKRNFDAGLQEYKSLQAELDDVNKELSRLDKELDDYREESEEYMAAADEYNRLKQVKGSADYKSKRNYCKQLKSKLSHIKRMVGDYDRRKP

Compound in this assay: CN[C@@H]1C[C@H]2O[C@@](C)([C@@H]1OC)n1c3ccccc3c3c4c(c5c6ccccc6n2c5c31)C(=O)NC4 [staurosporine]
The experiment in a line: log2 fold change of tryptic peptide abundance, ligand vs vehicle (limited proteolysis) (log2 ratio); higher = more trypsin-susceptible (destabilized). Particulars: ligand concentration: 20 uM; sample: mouse liver crude lysate; replicate design: treated separately.
Regarding “UniProt Q5PRE5 (peptide sequence: DGEEITNEGK, peptide start residue: 167)”, the log2 fold change was -0.17. On to “UniProt Q61043 (peptide sequence: LQEENSILR, peptide start residue: 1509)”, for which the log2 fold change came to 0.0738. “UniProt Q5ND28 (peptide sequence: SAIPKPLR, peptide start residue: 727)”: the log2 fold change is 0.434. With “UniProt Q61074 (peptide sequence: ALQDAFLAIDAK, peptide start residue: 93)” the figure was 0.226.

In the case of “UniProt Q5DW34 (peptide sequence: ASPQEGTNR, peptide start residue: 80)”, the log2 fold change was -0.448. Next, “UniProt Q61081 (peptide sequence: TADHQYMEGFK, peptide start residue: 244)”: -1.16; “UniProt Q61233 (peptide sequence: ITNFSTDIK, peptide start residue: 286)”: -0.826.

For “UniProt Q5SDA5 (peptide sequence: EIIDRLK, peptide start residue: 759)”, the log2 fold change was determined as 0.12. With “UniProt Q61009 (peptide sequence: GTVLQEAKL, peptide start residue: 501)” the figure was -0.196; with “UniProt Q5SS90 (peptide sequence: LISNGYKDEWLQQQK, peptide start residue: 216)”, -0.273. For the target “UniProt Q60722 (peptide sequence: LDDAIHVLR, peptide start residue: 431)”, the log2 fold change is 0.0133. With “UniProt Q60738 (peptide sequence: DAEKAPTVSISCLELSENLEKK, peptide start residue: 453)” the figure was -0.21; with “UniProt Q60766 (peptide sequence: FYIVWTK, peptide start residue: 185)”, 0.125. With “UniProt Q5SVR0 (peptide sequence: MTFLFANLKDRDFLVQR, peptide start residue: 373)” the figure was -0.495; with “UniProt Q61088 (peptide sequence: GNGWVKPGK, peptide start residue: 523)”, -0.237. In the case of “UniProt Q60641 (peptide sequence: KLPAGHADLLEER, peptide start residue: 355)”, the log2 fold change was -0.148. With “UniProt Q5NCS9 (peptide sequence: VLLELLRK, peptide start residue: 253)” the figure was -0.0274. Next, “UniProt Q60644 (peptide sequence: MLGHELCRVCGDK, peptide start residue: 72)”: -0.234. With “UniProt Q61124 (peptide sequence: RLEDSEREETDSEPQAPR, peptide start residue: 10)” the figure was 0.0931; with “UniProt Q5U458 (peptide sequence: AIYDIYGK, peptide start residue: 76)”, 0.326; with “UniProt Q5I043 (peptide sequence: ESVIALYR, peptide start residue: 916)”, -0.222. Consider “UniProt Q61017 (peptide sequence: MEVEQLKK, peptide start residue: 13)”, for which the log2 fold change came to 0.0573. Next, “UniProt Q5XJV7 (peptide sequence: GHPTQSPGYSYR, peptide start residue: 1263)”: 0.25.

In the case of “UniProt Q60969 (peptide sequence: SLAVHSGTTGSVKR, peptide start residue: 191)”, the log2 fold change was -0.0826.

“UniProt Q5RJH6 (peptide sequence: NPSNSCDSGEKPVVTFK, peptide start residue: 531)”: the log2 fold change is 0.34. For the target “UniProt Q5YD48 (peptide sequence: KVTEGVVDVIVYPSAADK, peptide start residue: 158)”, the log2 fold change is -0.248. With “UniProt Q5SQF8 (peptide sequence: NFIQSVR, peptide start residue: 78)” the figure was 0.147; with “UniProt Q5XF89 (peptide sequence: CLVNEVSNGHAVHLTEENR, peptide start residue: 101)”, 0.0274. On to “UniProt Q60715 (peptide sequence: GNLPGVQHK, peptide start residue: 151)”, for which the log2 fold change is -0.171. As for “UniProt Q61146 (peptide sequence: SKLSHIKR, peptide start residue: 504)”, the log2 fold change worked out at 1.35. With “UniProt Q61247 (peptide sequence: LIGQNDKADFHGGK, peptide start residue: 455)” the figure was -0.126; with “UniProt Q5SSL4 (peptide sequence: STLVLHDLLK, peptide start residue: 652)”, 0.0887; with “UniProt Q60980 (peptide sequence: IEPGIEPQR, peptide start residue: 198)”, -0.107. As to “UniProt Q5KU39 (peptide sequence: DSTHCPLEK, peptide start residue: 633)”, the log2 fold change is 0.617.

Turning to “UniProt Q5NC05 (peptide sequence: SPDNPFSR, peptide start residue: 859)”, the log2 fold change is -0.36. With “UniProt Q60996 (peptide sequence: LFMEMNQK, peptide start residue: 396)” the figure was 0.353.

Values taken from the supplement of paper PMC12819154, “High-throughput peptide-centric local stability assay extends protein–ligand identification to membrane proteins, tissues and bacteria” (Nature Structural & Molecular Biology, 2025).
